The target of experiment [1] is T1, l-TIM-V5, C-terminally V5 tagged full length mouse TIMELESS, TIM(1–1198)-V5 (mouse) (UniProt Q9R1X4).
T1 sequence: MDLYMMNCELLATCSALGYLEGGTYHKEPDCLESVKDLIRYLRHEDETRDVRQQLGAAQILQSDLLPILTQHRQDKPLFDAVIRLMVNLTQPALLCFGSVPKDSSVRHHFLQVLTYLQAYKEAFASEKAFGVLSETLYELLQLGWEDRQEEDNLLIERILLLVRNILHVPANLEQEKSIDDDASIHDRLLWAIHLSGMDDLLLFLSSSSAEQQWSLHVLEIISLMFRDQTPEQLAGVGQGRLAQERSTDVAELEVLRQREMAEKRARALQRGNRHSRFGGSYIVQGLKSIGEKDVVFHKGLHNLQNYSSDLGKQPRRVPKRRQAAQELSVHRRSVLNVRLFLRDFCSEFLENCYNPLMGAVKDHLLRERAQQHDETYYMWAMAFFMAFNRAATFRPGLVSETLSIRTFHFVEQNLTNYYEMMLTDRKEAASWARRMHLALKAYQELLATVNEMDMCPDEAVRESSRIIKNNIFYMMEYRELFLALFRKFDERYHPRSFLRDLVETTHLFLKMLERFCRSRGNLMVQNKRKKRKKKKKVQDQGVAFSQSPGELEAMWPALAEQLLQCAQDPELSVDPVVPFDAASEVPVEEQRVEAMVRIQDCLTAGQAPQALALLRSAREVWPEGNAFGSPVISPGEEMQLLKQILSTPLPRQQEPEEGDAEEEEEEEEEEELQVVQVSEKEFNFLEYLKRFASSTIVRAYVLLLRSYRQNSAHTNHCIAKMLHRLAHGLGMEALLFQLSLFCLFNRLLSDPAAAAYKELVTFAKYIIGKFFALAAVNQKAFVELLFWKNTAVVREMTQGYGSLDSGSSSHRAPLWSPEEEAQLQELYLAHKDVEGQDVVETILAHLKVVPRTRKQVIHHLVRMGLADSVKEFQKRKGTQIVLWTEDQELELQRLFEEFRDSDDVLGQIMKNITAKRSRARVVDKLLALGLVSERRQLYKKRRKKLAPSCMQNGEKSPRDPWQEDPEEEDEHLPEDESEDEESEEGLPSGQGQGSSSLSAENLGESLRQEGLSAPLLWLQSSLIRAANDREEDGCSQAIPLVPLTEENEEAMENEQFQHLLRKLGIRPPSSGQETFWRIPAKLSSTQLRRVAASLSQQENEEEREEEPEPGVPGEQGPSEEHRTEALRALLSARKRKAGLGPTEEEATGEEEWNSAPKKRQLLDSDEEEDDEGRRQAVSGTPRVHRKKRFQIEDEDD
Kind of experiment: co-IP; COS7 transiently co-expressing l-TIM-V5 and HA-CRY1 (wild type or mutant); IP anti-V5, blot anti-HA.

Sequences of proteins named here, by UniProt entry; tags and fusion partners are left off. A change or cut given only in a name is not applied to a line headed by its entry.
UniProt P97784: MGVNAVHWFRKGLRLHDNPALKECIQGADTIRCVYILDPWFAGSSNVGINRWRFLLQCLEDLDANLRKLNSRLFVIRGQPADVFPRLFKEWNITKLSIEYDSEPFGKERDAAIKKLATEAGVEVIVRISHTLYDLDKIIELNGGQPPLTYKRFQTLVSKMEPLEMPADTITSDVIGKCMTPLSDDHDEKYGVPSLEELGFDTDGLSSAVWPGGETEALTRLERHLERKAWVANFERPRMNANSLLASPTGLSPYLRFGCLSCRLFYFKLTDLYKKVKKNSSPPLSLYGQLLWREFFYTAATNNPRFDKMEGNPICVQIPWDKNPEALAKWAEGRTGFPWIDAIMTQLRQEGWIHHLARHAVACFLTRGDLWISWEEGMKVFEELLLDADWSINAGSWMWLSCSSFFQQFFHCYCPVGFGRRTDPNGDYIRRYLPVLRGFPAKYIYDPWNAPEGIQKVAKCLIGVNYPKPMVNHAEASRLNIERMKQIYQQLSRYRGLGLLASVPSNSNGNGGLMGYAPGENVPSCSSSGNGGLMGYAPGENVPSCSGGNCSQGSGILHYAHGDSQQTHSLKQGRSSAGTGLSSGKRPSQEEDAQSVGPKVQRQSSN

Experiment [2] addresses T1, l-TIM-V5, C-terminally V5 tagged full length mouse TIMELESS, TIM(1–1198)-V5 (mouse). Nature of the experiment: co-IP; COS7 co-expressing all three of HA-CRY1 (WT or mutNLSc), l-TIM-V5 and PER2-GFP; IP of each with anti-HA, anti-V5 or anti-GFP, blots with the corresponding antibodies.

These are yes or no findings as the source states them, for the method shown. Binding seen in cells or lysates may run through a third protein. For part of these data: A result given as binding can be weak or reduced; the word gives no strength. Sequences can lack the tags named with a protein.

In the case of “HA-CRY1dCC (CRY1 lacking the C-terminal coiled-coil domain) (from UniProt P97784)”, the binding result in experiment [1] is reported as “no binding”.
Take “HA-CRY1mutNLSc (CRY1 with a mutated C-terminal NLS) (from UniProt P97784)”: the results for the binding entry in experiment [2] and in experiment [1] were “no binding (only with co-expressed PER2-GFP)” and “binds”, respectively.

These data come from publication PMC3572085.
